Data on one molecule can be found in article doi:10.1101/2022.04.01.486731.

This assay addresses T1, NIMA related kinase 1 (Nek1), Q96PY6.
T1 chain: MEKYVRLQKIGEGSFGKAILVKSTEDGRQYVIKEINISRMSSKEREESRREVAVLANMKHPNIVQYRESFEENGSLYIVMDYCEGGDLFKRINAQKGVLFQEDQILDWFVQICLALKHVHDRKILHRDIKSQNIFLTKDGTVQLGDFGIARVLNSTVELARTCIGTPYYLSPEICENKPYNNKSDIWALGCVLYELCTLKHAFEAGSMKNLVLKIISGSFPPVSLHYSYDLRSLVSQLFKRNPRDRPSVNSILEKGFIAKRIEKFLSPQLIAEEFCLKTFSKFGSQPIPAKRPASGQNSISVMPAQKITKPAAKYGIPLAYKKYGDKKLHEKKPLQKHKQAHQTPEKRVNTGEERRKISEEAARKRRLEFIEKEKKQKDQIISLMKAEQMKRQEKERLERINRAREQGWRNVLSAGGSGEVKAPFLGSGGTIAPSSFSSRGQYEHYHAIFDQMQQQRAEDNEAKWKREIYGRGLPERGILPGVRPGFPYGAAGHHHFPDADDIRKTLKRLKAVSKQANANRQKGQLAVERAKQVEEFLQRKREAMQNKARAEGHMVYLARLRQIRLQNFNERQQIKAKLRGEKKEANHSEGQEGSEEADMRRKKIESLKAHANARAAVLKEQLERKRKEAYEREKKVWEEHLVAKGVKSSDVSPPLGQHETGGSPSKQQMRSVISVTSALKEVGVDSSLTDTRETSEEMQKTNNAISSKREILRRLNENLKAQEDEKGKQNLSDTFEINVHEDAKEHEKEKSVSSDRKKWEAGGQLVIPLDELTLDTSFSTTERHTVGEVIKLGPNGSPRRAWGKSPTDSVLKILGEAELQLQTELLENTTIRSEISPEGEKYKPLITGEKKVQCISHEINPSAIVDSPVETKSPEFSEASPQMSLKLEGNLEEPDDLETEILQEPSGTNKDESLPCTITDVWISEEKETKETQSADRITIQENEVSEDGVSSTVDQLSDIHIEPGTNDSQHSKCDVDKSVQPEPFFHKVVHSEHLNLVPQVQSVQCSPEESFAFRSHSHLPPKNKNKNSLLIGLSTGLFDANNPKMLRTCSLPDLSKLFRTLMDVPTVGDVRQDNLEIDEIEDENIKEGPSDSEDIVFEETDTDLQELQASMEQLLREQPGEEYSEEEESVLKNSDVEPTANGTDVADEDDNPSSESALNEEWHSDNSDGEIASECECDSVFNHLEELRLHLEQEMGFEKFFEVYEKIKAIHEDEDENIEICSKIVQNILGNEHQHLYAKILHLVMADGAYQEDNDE
Description: co-IP. The following applies: remark: other sources report otherwise.

These are yes or no findings as the source states them, for the method shown. Binding seen in cells or lysates may run through a third protein.

B1: Rad54, Q92698 1-747 (protein)
chain: MRRSLAPSQLAKRKPEGRSCDDEDWQPGLVTPRKRKSSSETQIQECFLSPFRKPLSQLTNQPPCLDSSQHEAFIRSILSKPFKVPIPNYQGPLGSRALGLKRAGVRRALHDPLEKDALVLYEPPPLSAHDQLKLDKEKLPVHVVVDPILSKVLRPHQREGVKFLWECVTSRRIPGSHGCIMADEMGLGKTLQCITLMWTLLRQSPECKPEIDKAVVVSPSSLVKNWYNEVGKWLGGRIQPLAIDGGSKDEIDQKLEGFMNQRGARVSSPILIISYETFRLHVGVLQKGSVGLVICDEGHRLKNSENQTYQALDSLNTSRRVLISGTPIQNDLLEYFSLVHFVNSGILGTAHEFKKHFELPILKGRDAAASEADRQLGEERLRELTSIVNRCLIRRTSDILSKYLPVKIEQVVCCRLTPLQTELYKRFLRQAKPAEELLEGKMSVSSLSSITSLKKLCNHPALIYDKCVEEEDGFVGALDLFPPGYSSKALEPQLSGKMLVLDYILAVTRSRSSDKVVLVSNYTQTLDLFEKLCRARRYLYVRLDGTMSIKKRAKVVERFNSPSSPDFVFMLSSKAGGCGLNLIGANRLVMFDPDWNPANDEQAMARVWRDGQKKTCYIYRLLSAGTIEEKIFQRQSHKKALSSCVVDEEQDVERHFSLGELKELFILDEASLSDTHDRLHCRRCVNSRQIRPPPDGSDCTSDLAGWNHCTDKWGLRDEVLQAAWDAASTAITFVFHQRSHEEQRGLR
Take B1: the binding result was “no binding”.
